Assay results: the supplement of paper PMC10849652
The list shows a part of the results.

Sequences of proteins named here, by UniProt entry; tags and fusion partners are left off. A change or cut given only in a name is not applied to a line headed by its entry.
UniProt Q13049: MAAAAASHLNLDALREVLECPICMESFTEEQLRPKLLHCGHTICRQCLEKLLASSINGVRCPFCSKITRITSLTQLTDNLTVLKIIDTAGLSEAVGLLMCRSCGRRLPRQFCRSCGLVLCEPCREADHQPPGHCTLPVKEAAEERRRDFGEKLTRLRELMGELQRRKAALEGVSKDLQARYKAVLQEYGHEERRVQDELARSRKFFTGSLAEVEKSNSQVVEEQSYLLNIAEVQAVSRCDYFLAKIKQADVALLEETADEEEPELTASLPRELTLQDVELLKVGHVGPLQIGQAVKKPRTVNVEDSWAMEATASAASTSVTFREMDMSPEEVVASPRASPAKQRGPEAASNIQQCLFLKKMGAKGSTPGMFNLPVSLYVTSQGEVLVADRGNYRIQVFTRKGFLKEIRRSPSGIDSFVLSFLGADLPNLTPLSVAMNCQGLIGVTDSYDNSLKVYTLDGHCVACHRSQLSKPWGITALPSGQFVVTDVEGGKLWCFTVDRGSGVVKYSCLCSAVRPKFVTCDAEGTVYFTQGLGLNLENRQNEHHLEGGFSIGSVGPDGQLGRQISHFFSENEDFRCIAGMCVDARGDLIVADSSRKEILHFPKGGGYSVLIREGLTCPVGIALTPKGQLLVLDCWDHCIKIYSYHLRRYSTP
UniProt Q9Y4K3: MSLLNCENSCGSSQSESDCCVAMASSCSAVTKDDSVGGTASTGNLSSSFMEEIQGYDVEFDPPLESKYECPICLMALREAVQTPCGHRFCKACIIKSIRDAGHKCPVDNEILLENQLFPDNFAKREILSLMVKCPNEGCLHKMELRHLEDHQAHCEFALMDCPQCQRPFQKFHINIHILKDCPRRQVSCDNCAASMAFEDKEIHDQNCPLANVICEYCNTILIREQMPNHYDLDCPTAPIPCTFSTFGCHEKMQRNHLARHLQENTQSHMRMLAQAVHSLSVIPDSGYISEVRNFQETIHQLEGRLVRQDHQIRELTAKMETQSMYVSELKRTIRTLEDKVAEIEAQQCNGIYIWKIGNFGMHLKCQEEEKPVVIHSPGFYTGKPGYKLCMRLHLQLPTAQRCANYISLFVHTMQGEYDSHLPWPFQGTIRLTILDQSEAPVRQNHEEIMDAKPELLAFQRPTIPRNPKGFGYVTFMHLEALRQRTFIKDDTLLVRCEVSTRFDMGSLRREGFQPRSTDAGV
UniProt Q9NUP7: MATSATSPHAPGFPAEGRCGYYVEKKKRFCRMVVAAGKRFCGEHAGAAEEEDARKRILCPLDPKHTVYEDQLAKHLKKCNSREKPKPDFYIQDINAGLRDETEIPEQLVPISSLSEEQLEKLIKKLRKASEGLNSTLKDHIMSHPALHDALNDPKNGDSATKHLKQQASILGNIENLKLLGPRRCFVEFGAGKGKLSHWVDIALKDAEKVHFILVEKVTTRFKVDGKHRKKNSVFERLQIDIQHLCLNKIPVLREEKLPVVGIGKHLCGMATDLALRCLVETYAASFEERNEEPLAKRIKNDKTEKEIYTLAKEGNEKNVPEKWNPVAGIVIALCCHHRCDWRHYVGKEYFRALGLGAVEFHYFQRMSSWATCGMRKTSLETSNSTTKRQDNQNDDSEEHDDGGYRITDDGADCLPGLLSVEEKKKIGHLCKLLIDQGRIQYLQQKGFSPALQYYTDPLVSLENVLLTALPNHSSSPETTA
UniProt P51580: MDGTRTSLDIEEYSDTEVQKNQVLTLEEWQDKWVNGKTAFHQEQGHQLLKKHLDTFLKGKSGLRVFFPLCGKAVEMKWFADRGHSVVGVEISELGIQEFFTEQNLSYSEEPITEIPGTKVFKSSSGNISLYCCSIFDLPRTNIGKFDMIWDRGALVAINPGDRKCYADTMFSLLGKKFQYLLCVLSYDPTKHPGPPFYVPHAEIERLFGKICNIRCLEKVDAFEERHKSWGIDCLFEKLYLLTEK
UniProt Q9BUZ4: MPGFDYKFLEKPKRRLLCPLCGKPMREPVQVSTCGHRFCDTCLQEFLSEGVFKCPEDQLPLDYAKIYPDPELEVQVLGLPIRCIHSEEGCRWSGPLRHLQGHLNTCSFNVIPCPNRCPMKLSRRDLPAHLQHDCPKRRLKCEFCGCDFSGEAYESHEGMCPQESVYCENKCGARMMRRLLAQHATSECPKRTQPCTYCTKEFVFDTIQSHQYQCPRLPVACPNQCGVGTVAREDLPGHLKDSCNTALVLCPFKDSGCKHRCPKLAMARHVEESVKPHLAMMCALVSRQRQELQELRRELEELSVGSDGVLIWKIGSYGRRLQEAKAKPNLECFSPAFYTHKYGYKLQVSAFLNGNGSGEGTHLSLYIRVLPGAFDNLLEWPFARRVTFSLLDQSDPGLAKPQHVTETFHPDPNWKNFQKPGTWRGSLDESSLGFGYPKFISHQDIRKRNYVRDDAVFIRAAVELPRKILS
UniProt Q8IUR0, whole entry, looked up: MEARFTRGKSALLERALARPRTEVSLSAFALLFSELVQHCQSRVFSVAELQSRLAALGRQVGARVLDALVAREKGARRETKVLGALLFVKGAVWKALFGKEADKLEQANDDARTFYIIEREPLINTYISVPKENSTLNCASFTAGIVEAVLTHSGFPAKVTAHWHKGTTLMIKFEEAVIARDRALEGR
UniProt Q96F44: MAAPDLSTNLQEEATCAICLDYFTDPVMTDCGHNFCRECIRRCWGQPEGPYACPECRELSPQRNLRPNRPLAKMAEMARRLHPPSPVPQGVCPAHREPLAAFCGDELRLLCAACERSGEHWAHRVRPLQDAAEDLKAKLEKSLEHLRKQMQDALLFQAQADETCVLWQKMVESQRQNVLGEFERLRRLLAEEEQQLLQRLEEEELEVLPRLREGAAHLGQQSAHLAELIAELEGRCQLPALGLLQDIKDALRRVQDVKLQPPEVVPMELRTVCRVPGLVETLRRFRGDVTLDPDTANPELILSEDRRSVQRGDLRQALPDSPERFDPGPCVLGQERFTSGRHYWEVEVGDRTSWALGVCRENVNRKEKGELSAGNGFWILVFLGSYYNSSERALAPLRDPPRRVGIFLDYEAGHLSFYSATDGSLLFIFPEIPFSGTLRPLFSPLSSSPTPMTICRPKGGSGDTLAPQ
UniProt Q15650: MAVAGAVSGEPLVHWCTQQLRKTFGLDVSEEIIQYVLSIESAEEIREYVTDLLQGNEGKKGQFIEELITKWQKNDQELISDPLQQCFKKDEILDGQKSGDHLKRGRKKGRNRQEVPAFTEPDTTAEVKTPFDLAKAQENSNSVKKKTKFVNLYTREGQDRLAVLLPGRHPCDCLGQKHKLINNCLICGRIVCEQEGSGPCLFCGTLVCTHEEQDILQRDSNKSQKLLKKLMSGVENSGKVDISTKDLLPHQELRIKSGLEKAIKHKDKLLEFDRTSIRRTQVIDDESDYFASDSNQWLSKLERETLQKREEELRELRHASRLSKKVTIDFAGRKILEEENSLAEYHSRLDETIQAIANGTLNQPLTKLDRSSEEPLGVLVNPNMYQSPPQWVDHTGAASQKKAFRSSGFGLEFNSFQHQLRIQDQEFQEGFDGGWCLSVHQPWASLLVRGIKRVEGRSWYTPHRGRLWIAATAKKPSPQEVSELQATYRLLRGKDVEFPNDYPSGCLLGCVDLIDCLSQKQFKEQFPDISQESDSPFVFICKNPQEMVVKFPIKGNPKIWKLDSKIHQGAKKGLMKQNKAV
UniProt Q9BSV6: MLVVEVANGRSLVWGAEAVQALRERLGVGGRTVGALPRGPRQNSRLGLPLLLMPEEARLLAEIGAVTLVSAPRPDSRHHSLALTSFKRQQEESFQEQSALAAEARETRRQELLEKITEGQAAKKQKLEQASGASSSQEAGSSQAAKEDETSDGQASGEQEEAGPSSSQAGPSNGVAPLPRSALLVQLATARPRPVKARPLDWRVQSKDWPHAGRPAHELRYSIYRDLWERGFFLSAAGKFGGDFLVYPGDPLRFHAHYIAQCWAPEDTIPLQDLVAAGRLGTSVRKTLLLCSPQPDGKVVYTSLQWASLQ
UniProt Q9UPN9: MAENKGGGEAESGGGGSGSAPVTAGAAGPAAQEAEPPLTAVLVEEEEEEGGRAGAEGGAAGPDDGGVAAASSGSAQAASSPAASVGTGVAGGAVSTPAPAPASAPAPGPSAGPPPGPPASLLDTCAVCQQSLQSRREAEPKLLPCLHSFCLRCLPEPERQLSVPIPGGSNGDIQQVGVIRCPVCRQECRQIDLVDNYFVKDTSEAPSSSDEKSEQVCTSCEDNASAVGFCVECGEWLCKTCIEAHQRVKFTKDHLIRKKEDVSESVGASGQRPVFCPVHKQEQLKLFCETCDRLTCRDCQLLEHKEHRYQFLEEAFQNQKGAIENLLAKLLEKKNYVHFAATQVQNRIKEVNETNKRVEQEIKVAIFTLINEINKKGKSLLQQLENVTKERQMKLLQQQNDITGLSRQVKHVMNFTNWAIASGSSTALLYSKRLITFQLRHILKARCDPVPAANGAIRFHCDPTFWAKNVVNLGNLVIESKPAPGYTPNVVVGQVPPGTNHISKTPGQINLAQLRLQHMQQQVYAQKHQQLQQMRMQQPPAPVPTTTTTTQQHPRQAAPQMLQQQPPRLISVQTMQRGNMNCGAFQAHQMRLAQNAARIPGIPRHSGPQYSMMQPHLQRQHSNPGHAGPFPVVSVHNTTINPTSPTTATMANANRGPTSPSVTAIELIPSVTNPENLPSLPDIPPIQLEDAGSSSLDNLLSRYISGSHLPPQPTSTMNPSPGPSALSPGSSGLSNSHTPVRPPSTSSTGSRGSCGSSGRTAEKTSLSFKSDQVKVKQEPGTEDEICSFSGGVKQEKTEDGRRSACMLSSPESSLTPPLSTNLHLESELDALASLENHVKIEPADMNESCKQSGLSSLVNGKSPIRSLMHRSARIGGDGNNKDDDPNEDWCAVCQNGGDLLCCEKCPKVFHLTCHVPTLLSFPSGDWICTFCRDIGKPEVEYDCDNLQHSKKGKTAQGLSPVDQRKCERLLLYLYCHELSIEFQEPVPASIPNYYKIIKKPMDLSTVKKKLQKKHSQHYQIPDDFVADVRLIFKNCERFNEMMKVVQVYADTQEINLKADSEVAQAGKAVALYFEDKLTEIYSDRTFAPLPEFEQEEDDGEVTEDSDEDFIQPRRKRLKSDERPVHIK
UniProt Q8WWH5: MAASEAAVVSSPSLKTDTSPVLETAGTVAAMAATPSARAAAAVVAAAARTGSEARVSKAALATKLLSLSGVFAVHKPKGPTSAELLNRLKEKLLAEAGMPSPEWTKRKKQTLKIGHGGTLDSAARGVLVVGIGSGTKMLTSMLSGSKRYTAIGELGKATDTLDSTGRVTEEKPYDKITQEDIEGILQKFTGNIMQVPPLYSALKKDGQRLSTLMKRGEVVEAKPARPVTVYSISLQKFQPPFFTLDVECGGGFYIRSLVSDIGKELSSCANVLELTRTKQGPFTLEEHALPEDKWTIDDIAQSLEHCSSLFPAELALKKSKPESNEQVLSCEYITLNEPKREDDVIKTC
UniProt O60704: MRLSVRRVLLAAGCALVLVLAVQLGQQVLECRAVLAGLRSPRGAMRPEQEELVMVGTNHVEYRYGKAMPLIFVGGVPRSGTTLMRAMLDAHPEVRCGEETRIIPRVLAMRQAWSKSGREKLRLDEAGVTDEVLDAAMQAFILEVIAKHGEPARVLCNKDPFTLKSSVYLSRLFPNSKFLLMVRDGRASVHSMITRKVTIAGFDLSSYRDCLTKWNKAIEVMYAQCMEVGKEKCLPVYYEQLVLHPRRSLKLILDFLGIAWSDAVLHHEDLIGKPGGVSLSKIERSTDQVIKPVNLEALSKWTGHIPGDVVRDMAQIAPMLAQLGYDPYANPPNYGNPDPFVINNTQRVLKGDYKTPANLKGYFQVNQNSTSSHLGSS
UniProt Q96S44: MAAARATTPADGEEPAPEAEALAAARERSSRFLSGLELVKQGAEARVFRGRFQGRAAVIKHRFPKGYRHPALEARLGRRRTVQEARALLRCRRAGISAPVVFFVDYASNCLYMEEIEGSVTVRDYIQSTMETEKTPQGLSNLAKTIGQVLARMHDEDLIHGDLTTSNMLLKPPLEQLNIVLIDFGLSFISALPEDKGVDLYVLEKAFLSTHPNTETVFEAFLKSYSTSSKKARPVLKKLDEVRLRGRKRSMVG

Columns and labels:
Test in all cases: log2 fold change, soluble protein after heating vs DMSO (PISA); higher = thermal stabilisation; K562 cells, 10 uM, 30 min; active = over 0.2 and 3.5 SD of the protein, either way, in both replicates (recomputed)
saracatinib = compound: CN1CCN(CCOc2cc(OC3CCOCC3)c3c(Nc4c(Cl)ccc5c4OCO5)ncnc3c2)CC1 [saracatinib]
In short: (§1)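 K562 cells at 2×10^6 cells/mL were treated for 30 min with 10 μM compound, and aliquots were heated for 3 min over 48°C-58°C before pooling. Extraction used PBS with 0.5% NP-40 at 4°C, and soluble protein was the supernatant after 21,000xg for 90 min, measured by TMTpro 16plex LC-MS/MS with channel sums equalised. Thermal stability values, relative to control samples and from duplicates, are log2 fold changes.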

sotrastaurin = compound: CN1CCN(c2nc(C3=C(c4c[nH]c5ccccc45)C(=O)NC3=O)c3ccccc3n2)CC1 [sotrastaurin]
In short: as §1

alvocidib = compound: CN1CC[C@H](c2c(O)cc(O)c3c(=O)cc(-c4ccccc4Cl)oc23)[C@H](O)C1 [alvocidib]
In short: as §1

Tubastatin A = compound: CN1CCc2c(c3ccccc3n2Cc2ccc(C(=O)NO)cc2)C1 [Tubastatin A]
In short: as §1

[1] = compound: CNC(=O)C1=CC=CC=C1NC2=NC(=NC=C2Cl)NC3=C(C=C(C=C3)N4CCOCC4)OC
In short: as §1

defactinib = compound: CNC(=O)c1ccc(Nc2ncc(C(F)(F)F)c(NCc3nccnc3N(C)S(C)(=O)=O)n2)cc1 [defactinib]
In short: as §1

rucaparib = compound: CNCc1ccc(-c2[nH]c3cc(F)cc4c3c2CCNC4=O)cc1 [rucaparib]
In short: as §1

[2] = compound: CNc1nc(-c2ccc3c(N)n[nH]c3c2)cc(N2C[C@@H](C(=O)NC3CCCCC3)CC[C@H]2C)n1
In short: as §1

encorafenib = compound: COC(=O)N[C@@H](C)CNc1nccc(-c2cn(C(C)C)nc2-c2cc(Cl)cc(NS(C)(=O)=O)c2F)n1 [encorafenib]
In short: as §1

[3] = compound: COC(=O)[C@H](CCSC)NC(=O)C1=C(C=C(C=C1)NC[C@H](CS)N)C2=CC=CC=C2
In short: as §1

[4] = compound: COC1=CC=C(C=C1)CN2C=CC3=C2C=C(C=C3)C(=O)NO
In short: as §1

filanesib = compound: CON(C)C(=O)N1N=C(c2cc(F)ccc2F)S[C@@]1(CCCN)c1ccccc1 [filanesib]
In short: as §1

zotarolimus = compound: CO[C@H]1C[C@@H]2CC[C@@H](C)[C@@](O)(O2)C(=O)C(=O)N2CCCC[C@H]2C(=O)O[C@H]([C@H](C)C[C@@H]2CC[C@H](n3cnnn3)[C@H](OC)C2)CC(=O)[C@H](C)/C=C(\C)[C@@H](O)[C@@H](OC)C(=O)[C@H](C)C[C@H](C)/C=C/C=C/C=C/1C [zotarolimus]
In short: as §1

idasanutlin = compound: COc1cc(C(=O)O)ccc1NC(=O)[C@@H]1N[C@@H](CC(C)(C)C)[C@](C#N)(c2ccc(Cl)cc2F)[C@H]1c1cccc(Cl)c1F [idasanutlin]
In short: as §1

alisertib = compound: COc1cc(Nc2ncc3c(n2)-c2ccc(Cl)cc2C(c2c(F)cccc2OC)=NC3)ccc1C(=O)O [alisertib]
In short: as §1

[5] = compound: COc1cc2nc(-c3cc(F)ccc3O)nc(N[C@@H]3CNC[C@H]3C(C)(C)O)c2cc1OC
In short: as §1

gefitinib = compound: COc1cc2ncnc(Nc3ccc(F)c(Cl)c3)c2cc1OCCCN1CCOCC1 [gefitinib]
In short: as §1

[6] = compound: COc1cccc2cc(-c3nc([C@H]4CC[C@H](C(=O)O)CC4)n4ncnc(N)c34)[nH]c12
In short: as §1

lapatinib = compound: CS(=O)(=O)CCNCc1ccc(-c2ccc3ncnc(Nc4ccc(OCc5cccc(F)c5)c(Cl)c4)c3c2)o1 [lapatinib]
In short: as §1

pictilisib = compound: CS(=O)(=O)N1CCN(Cc2cc3nc(-c4cccc5[nH]ncc45)nc(N4CCOCC4)c3s2)CC1 [pictilisib]
In short: as §1

Measured: log2 fold change

TRIM32 (UniProt Q13049)
inactive: saracatinib 0.091 | sotrastaurin 0.142 | alvocidib -0.005 | Tubastatin A -0.086 | [1] 0.038 | defactinib 0.039 | rucaparib 0.014 | [2] -0.056 | encorafenib -0.044 | [3] 0.09 | [4] -0.097 | filanesib 0.048 | zotarolimus -0.114 | idasanutlin 0.044 | alisertib 0.287 | [5] 0.025 | gefitinib 0.12 | [6] 0.148 | lapatinib -0.019 | pictilisib 0.068

TRAF6 (UniProt Q9Y4K3)
inactive: saracatinib -0.007 | sotrastaurin -0.009 | alvocidib -0.071 | Tubastatin A -0.03 | [1] 0.014 | defactinib -0.145 | rucaparib -0.074 | [2] -0.032 | encorafenib -0.051 | [3] 0.09 | [4] -0.041 | filanesib 0.019 | zotarolimus 0.055 | idasanutlin -0.041 | alisertib -0.037 | [5] 0.102 | gefitinib 0.056 | [6] -0.025 | lapatinib -0.016 | pictilisib -0.021

TRMT13 (UniProt Q9NUP7)
inactive: saracatinib 0.045 | sotrastaurin -0.05 | alvocidib -0.096 | Tubastatin A 0.007 | [1] 0.005 | defactinib -0.103 | rucaparib -0.038 | [2] -0.072 | encorafenib 0.041 | [3] 0.001 | [4] -0.022 | filanesib -0.035 | zotarolimus 0.051 | idasanutlin -0.061 | alisertib 0.032 | [5] 0.031 | gefitinib -0.015 | [6] -0.036 | lapatinib 0.036 | pictilisib 0.054

TPMT (UniProt P51580)
inactive: saracatinib 0.018 | sotrastaurin 0.006 | alvocidib -0.001 | Tubastatin A -0.046 | [1] 0.027 | defactinib -0.052 | rucaparib -0.043 | [2] -0.006 | encorafenib 0 | [3] -0.06 | [4] -0.088 | filanesib -0.101 | zotarolimus -0.016 | idasanutlin -0.058 | alisertib 0.035 | [5] 0.023 | gefitinib -0.001 | [6] 0.001 | lapatinib 0.057 | pictilisib 0.028

TRMT61B (UniProt Q9BVS5)
inactive: saracatinib 0.049 | sotrastaurin 0.041 | alvocidib 0.11 | Tubastatin A -0.027 | [1] 0.028 | defactinib 0.087 | rucaparib 0.118 | [2] -0.039 | encorafenib 0.007 | [3] 0.011 | [4] -0.007 | filanesib 0.09 | zotarolimus -0.139 | idasanutlin 0.027 | alisertib -0.08 | [5] -0.057 | gefitinib 0.026 | [6] -0.022 | lapatinib 0.039 | pictilisib -0.065

TRAF4 (UniProt Q9BUZ4)
inactive: saracatinib -0.09 | sotrastaurin 0 | alvocidib 0.058 | Tubastatin A -0.011 | [1] 0.102 | defactinib 0.098 | rucaparib 0.173 | [2] -0.007 | encorafenib -0.039 | [3] 0.137 | [4] 0.143 | filanesib 0.036 | zotarolimus -0.043 | idasanutlin 0.079 | alisertib -0.022 | [5] 0.018 | gefitinib -0.013 | [6] -0.056 | lapatinib -0.004 | pictilisib -0.069

TRAPPC5 (UniProt Q8IUR0)
inactive: saracatinib -0.072 | sotrastaurin -0.086 | alvocidib -0.06 | Tubastatin A 0.033 | [1] 0.01 | defactinib -0.052 | rucaparib -0.011 | [2] 0.07 | encorafenib 0.054 | [3] -0.004 | [4] -0.046 | filanesib -0.079 | zotarolimus 0.013 | idasanutlin -0.088 | alisertib -0.002 | [5] -0.029 | gefitinib -0.026 | [6] 0.033 | lapatinib 0.053 | pictilisib -0.08

TOP2B (UniProt Q02880)
inactive: saracatinib -0.134 | sotrastaurin -0.01 | alvocidib 0.288 | Tubastatin A -0.013 | [1] 0.037 | defactinib 0.416 | rucaparib 0.484 | [2] 0.128 | encorafenib 0.245 | [3] 0.053 | [4] 0.013 | filanesib 0.501 | zotarolimus 0.076 | idasanutlin 0.297 | alisertib -0.166 | [5] -0.158 | gefitinib -0.063 | [6] -0.316 | lapatinib 0.195 | pictilisib -0.066

TRIM11 (UniProt Q96F44)
inactive: saracatinib -0.004 | sotrastaurin -0.054 | alvocidib -0.088 | Tubastatin A 0.104 | [1] -0.08 | defactinib -0.063 | rucaparib 0.061 | [2] -0.128 | encorafenib 0.003 | [3] -0.035 | [4] -0.021 | filanesib 0.071 | zotarolimus 0.008 | idasanutlin -0.016 | alisertib 0.039 | [5] 0.097 | gefitinib 0.007 | [6] -0.035 | lapatinib 0.111 | pictilisib 0.094

TRIP4 (UniProt Q15650)
inactive: saracatinib -0.041 | sotrastaurin -0.115 | alvocidib -0.035 | Tubastatin A -0.026 | [1] -0.019 | defactinib -0.092 | rucaparib 0.12 | [2] 0.041 | encorafenib 0.02 | [3] -0.041 | [4] 0.004 | filanesib 0.037 | zotarolimus 0.057 | idasanutlin 0.043 | alisertib -0.005 | [5] 0.002 | gefitinib 0.022 | [6] -0.026 | lapatinib 0.013 | pictilisib -0.107

TSEN34 (UniProt Q9BSV6)
inactive: saracatinib -0.033 | sotrastaurin -0.008 | alvocidib 0.07 | Tubastatin A -0.033 | [1] -0.054 | defactinib -0.051 | rucaparib -0.013 | [2] 0.007 | encorafenib 0.005 | [3] -0.046 | [4] 0.051 | filanesib -0.07 | zotarolimus -0.057 | idasanutlin -0.059 | alisertib 0.003 | [5] 0.017 | gefitinib 0.009 | [6] 0.043 | lapatinib 0.039

TRIM33 (UniProt Q9UPN9)
inactive: saracatinib -0.164 | sotrastaurin -0.399 | alvocidib -0.062 | Tubastatin A 0.05 | [1] 0.063 | defactinib -0.09 | rucaparib -0.03 | [2] 0.012 | encorafenib -0.008 | [3] -0.22 | [4] 0.112 | filanesib 0.089 | zotarolimus 0.002 | idasanutlin -0.048 | alisertib 0.117 | [5] 0.308 | gefitinib 0 | [6] -0.044 | lapatinib -0.032 | pictilisib 0.051

TRUB1 (UniProt Q8WWH5)
inactive: saracatinib -0.078 | sotrastaurin -0.018 | alvocidib -0.077 | Tubastatin A 0.043 | [1] 0.031 | defactinib -0.047 | rucaparib -0.013 | [2] -0.046 | encorafenib 0.016 | [3] -0.063 | [4] 0.087 | filanesib 0.09 | zotarolimus 0.033 | idasanutlin -0.005 | alisertib -0.066 | [5] -0.022 | gefitinib 0.02 | [6] 0.071 | lapatinib 0.045 | pictilisib -0.024

TRMT112 (UniProt Q9UI30)
inactive: saracatinib -0.073 | sotrastaurin 0.019 | alvocidib -0.043 | Tubastatin A -0.05 | [1] -0.03 | defactinib -0.116 | rucaparib 0.016 | [2] 0.016 | encorafenib -0.029 | [3] -0.073 | [4] -0.05 | filanesib 0.1 | zotarolimus 0.07 | idasanutlin -0.011 | alisertib -0.082 | [5] -0.024 | gefitinib 0.031 | [6] 0.006 | lapatinib -0.049 | pictilisib 0.055

TPST2 (UniProt O60704)
inactive: saracatinib -0.024 | sotrastaurin 0.02 | alvocidib -0.042 | Tubastatin A 0.003 | [1] 0.002 | defactinib 0.002 | rucaparib 0.046 | [2] 0.012 | encorafenib 0.054 | [3] -0.021 | [4] 0.036 | filanesib -0.031 | zotarolimus -0.011 | idasanutlin -0.007 | alisertib -0.091 | [5] 0.055 | gefitinib 0.093 | [6] 0.023 | lapatinib -0.034 | pictilisib -0.009

TP53RK (UniProt Q96S44)
inactive: saracatinib 0.008 | sotrastaurin 0.029 | alvocidib -0.018 | Tubastatin A -0.025 | [1] -0.013 | defactinib 0.028 | rucaparib -0.028 | [2] -0.027 | encorafenib 0.018 | [3] -0.011 | [4] 0.03 | filanesib 0.011 | zotarolimus -0.001 | idasanutlin -0.047 | alisertib -0.014 | [5] 0.011 | gefitinib 0.006 | [6] 0.022 | lapatinib -0.005 | pictilisib 0.048

2 neighbouring records from above:
TRAF4 (UniProt Q9BUZ4)
inactive: saracatinib -0.09 | sotrastaurin 0 | alvocidib 0.058 | Tubastatin A -0.011 | [1] 0.102 | defactinib 0.098 | rucaparib 0.173 | [2] -0.007 | encorafenib -0.039 | [3] 0.137 | [4] 0.143 | filanesib 0.036 | zotarolimus -0.043 | idasanutlin 0.079 | alisertib -0.022 | [5] 0.018 | gefitinib -0.013 | [6] -0.056 | lapatinib -0.004 | pictilisib -0.069

TRAPPC5 (UniProt Q8IUR0)
inactive: saracatinib -0.072 | sotrastaurin -0.086 | alvocidib -0.06 | Tubastatin A 0.033 | [1] 0.01 | defactinib -0.052 | rucaparib -0.011 | [2] 0.07 | encorafenib 0.054 | [3] -0.004 | [4] -0.046 | filanesib -0.079 | zotarolimus 0.013 | idasanutlin -0.088 | alisertib -0.002 | [5] -0.029 | gefitinib -0.026 | [6] 0.033 | lapatinib 0.053 | pictilisib -0.08
